Test results as given in US20250140406A1, “CLASSIFYING TUMORS AND PREDICTING RESPONSIVENESS” (Oncocyte Corporation, priority 2022, published 2025).
At least one compound was matched to its structure with a doubt left.

How the values were obtained:
[1] = system: cancer cell lines classified IM, MSL, M; experiment: PRISM screen compound sensitivity correlated with IM, MSL and M subtype of cell lines (101 gene signature); format: cell-based; details: for TNBCType train: 101 gene signature
[2] = system: cancer cell lines classified IM, MSL, M; experiment: Cancer Therapeutics Response Portal (CTRP) small-molecule sensitivity correlated with IM, MSL and M subtype; format: cell-based; details: CTRP and PRISM screens; IM class by 101 gene signature
Protocol: Compound correlations where the correlation was negative, indicating sensitivity to the compound, and with a q value less than 0.05 were assessed.

[3] = subtype (IM, MSL or M) with which compound sensitivity is negatively correlated, training cell set (371 cell lines)
[4] = subtype (IM, MSL or M) assigned to the compound by negative correlation of PRISM sensitivity with subtype, training cell set (371 cell lines)
[5] = subtype (IM, MSL or M) with which PRISM compound sensitivity is negatively correlated, training cell set

For C/C=C1/[C@H](O[C@@H]2O[C@H](CO)[C@@H](O)[C@H](O)[C@H]2O)OC=C(C(=O)OC)[C@H]1CC(=O)OCCc1ccc(O)c(O)c1 [oleuropein], which TNBCType train [1, 3] is on record?
The TNBCType train was “MSL”.

For O=C(CCc1ccc(O)cc1)c1c(O)cc(O)cc1O [phloretin], which TNBCType train [1, 3] is on record?
The TNBCType train was “MSL”.

COc1cc(-c2ccc(=O)[nH]n2)ccc1OC(F)F [zardaverine] was tested. Which TNBCType test ([1]; subtype (IM, MSL, M) with which compound sensitivity correlates, test set) did it give?
The TNBCType test was “MSL/M”.

With CCc1nc(N)nc(N)c1-c1ccc(Cl)cc1 [pyrimethamine] as the molecule, how does the TNBCType train [1, 4] read?
Its TNBCType train is “MSL”.

For CCOc1ccccc1-n1c(C(C)N2CCN(C(=O)COc3ccc(Cl)cc3)CC2)nc2ccccc2c1=O (centres unmarked) [erastin], which TNBCType train [1, 3] is on record?
Its TNBCType train is “MSL”.

Which TNBCType train [1, 5] does the source give for Nc1cc(F)ccc1NC(=O)c1ccc(CNC(=O)/C=C/c2cccnc2)cc1 [chidamide] here?
The TNBCType train was “MSL”.

[H]/N=C(/N)c1ccc(NCc2nc3cc(C(=O)N(CCC(=O)O)c4ccccn4)ccc3n2C)cc1 [dabigatran] was tested. Which TNBCType train [1, 5] did it give?
Its TNBCType train is “MSL”.

For CO[C@@H]1[C@H](N(C)C(=O)c2ccccc2)C[C@H]2O[C@]1(C)n1c3ccccc3c3c4c(c5c6ccccc6n2c5c31)C(=O)NC4 [midostaurin], which TNBCType train [1, 3] is on record?
The TNBCType train was “MSL”.

With COc1cc(/C=C/c2ccc(O)cc2)cc(OC)c1 [pterostilbene] as the molecule, how does the TNBCType train [1, 5] read?
The TNBCType train was “MSL”.

How did the TNBCType train [1, 4] turn out when COCCNCc1ccc(-c2cc3nccc(Oc4ccc(NC(=S)NC(=O)Cc5ccc(F)cc5)cc4F)c3s2)nc1 [MGCD-265] was run?
The TNBCType train was “MSL”.

For CN(C)C/C=C/C(=O)Nc1cc2c(Nc3ccc(F)c(Cl)c3)ncnc2cc1O[C@H]1CCOC1 [afatinib], which “Sensitivity of tumors of the IM class to the compound” value [2] is on record?
The value was “especially sensitive”.
